This is an account of results in US20180057596A1.

Results are given in words; binding and its absence hold for the method and conditions named. Some entries that bind do so weakly or less than the wild type.

The assay addresses cynomolgus IL4Rα/Fc HIS6 (HEK expressed) (cynomolgus monkey). The assay is described as follows: DELFIA epitope competition, receptor as competitor of biotinylated human IL-4Rα HIS FLAG.

B1: Antibody 37GL IgG (antibody, V domains shown)
VH: QVQLVQSGAEVKKPGASVKVSCKASGYAFTSYYMHWVRQAPGQGLEWMGIINPRGGSTSYAQKFQGRVTMTRDTSTSTVYMELSSLRSEDTAVYYCARGKYWMYDWGKGTLVTVSS
VL: QSVLTQPPSVSAAPGQKVTISCSGGGSSIGNSYVSWYQQLPGTAPKLLIYDNNKRPSGIPDRFSGSKSGTSATLGITGLQTGDEADYYCGTWDTSPVWEWPFGTGTKLTVL
On to B1, for which the binding entry is listed as “binds”.
